Measured values as given in the supplement of paper PMC12819154, “High-throughput peptide-centric local stability assay extends protein–ligand identification to membrane proteins, tissues and bacteria” (Nature Structural & Molecular Biology, 2025).
The other results are listed elsewhere or left out. Small differences around the control level are noise.

By UniProt entry, the sequences of proteins in these tests, tags left out. Where a name states a change or a piece, a line headed by the entry shows the natural chain unless it says otherwise.
UniProt P54577: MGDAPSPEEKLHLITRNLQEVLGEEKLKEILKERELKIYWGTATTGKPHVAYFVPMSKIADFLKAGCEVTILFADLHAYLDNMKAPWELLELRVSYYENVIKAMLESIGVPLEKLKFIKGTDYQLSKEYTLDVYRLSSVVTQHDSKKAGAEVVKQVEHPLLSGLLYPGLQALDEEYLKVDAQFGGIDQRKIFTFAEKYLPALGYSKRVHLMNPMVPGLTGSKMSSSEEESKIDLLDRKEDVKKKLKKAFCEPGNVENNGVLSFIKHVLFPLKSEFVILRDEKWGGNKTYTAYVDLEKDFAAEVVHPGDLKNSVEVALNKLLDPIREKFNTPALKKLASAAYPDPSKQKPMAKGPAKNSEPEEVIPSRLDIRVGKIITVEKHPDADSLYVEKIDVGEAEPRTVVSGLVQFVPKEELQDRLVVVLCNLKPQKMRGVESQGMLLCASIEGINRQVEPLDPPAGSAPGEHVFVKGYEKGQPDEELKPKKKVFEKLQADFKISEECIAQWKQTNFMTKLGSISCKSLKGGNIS
UniProt P48556: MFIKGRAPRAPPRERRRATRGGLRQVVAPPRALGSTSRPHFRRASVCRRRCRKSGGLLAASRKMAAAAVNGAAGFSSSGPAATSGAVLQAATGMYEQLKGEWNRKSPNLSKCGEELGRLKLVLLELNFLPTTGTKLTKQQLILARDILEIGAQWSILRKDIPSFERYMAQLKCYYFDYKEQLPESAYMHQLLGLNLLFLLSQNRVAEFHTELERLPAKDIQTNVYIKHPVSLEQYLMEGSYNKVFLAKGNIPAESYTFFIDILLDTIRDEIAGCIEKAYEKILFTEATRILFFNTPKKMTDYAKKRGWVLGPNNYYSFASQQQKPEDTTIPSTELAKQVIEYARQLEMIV
UniProt P53801: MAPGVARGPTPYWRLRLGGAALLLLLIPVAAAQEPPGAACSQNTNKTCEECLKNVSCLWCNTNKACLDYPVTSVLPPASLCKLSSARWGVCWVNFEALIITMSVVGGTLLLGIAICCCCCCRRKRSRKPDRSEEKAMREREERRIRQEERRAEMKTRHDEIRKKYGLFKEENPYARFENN
UniProt P49643: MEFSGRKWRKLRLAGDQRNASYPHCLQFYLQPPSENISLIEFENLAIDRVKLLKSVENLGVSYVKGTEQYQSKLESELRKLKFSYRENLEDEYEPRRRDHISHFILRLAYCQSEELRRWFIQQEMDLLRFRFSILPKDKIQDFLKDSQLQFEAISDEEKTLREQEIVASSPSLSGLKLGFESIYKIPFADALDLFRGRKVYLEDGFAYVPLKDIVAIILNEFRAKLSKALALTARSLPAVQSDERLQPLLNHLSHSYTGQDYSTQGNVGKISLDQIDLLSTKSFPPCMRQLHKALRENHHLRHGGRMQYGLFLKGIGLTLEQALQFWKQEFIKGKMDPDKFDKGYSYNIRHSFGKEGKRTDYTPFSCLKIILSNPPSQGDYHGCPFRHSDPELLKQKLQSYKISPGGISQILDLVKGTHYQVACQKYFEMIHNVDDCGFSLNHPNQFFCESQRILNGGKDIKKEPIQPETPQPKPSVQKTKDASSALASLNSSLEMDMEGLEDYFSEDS
UniProt P49757: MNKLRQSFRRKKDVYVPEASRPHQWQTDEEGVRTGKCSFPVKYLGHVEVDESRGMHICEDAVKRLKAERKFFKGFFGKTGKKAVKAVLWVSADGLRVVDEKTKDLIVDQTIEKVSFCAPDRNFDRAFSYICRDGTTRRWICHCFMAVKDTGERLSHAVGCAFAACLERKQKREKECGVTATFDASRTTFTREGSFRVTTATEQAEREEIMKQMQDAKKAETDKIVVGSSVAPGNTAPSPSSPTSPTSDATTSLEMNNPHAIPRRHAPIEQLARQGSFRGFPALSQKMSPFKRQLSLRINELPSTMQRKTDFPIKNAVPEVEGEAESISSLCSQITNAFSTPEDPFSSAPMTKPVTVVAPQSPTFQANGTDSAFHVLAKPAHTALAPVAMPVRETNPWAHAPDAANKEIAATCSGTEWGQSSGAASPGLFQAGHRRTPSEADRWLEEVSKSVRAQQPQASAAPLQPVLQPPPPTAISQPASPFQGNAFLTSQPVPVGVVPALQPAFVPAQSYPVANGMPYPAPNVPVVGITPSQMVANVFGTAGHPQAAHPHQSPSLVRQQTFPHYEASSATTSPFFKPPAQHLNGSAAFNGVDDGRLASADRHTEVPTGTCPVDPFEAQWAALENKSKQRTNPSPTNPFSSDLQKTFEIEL
UniProt P49006: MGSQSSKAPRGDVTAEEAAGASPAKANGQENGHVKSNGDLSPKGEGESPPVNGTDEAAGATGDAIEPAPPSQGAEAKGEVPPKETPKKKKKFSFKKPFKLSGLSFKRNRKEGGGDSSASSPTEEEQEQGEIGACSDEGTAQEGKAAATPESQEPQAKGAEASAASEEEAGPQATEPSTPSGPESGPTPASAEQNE
UniProt P53350, whole entry: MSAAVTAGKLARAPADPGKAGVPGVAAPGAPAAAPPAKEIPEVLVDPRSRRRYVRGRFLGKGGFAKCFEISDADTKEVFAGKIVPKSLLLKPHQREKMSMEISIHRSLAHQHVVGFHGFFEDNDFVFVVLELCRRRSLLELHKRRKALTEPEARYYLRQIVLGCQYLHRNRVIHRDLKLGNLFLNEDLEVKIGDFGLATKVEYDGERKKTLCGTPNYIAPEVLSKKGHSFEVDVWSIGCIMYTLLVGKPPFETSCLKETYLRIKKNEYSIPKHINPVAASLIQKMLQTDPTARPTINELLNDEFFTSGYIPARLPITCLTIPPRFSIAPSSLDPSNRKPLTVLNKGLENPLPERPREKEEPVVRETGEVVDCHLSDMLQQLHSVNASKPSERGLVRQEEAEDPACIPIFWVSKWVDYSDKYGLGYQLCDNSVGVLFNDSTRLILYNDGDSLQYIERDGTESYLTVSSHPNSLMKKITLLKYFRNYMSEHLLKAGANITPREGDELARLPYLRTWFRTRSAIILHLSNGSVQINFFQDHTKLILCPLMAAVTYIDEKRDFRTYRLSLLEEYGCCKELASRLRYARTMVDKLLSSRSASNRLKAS
UniProt P48730: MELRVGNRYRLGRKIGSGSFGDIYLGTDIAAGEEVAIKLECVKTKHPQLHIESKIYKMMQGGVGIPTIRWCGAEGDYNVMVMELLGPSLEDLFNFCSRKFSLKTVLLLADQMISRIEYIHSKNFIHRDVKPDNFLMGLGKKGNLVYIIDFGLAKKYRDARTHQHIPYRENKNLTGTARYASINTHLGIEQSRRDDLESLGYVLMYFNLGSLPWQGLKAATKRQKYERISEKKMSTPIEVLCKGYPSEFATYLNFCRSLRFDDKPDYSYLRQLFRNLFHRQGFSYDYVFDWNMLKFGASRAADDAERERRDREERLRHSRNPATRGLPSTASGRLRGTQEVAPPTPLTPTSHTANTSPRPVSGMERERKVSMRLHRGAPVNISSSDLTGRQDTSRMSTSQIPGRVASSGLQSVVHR
UniProt P51617, whole entry, looked up: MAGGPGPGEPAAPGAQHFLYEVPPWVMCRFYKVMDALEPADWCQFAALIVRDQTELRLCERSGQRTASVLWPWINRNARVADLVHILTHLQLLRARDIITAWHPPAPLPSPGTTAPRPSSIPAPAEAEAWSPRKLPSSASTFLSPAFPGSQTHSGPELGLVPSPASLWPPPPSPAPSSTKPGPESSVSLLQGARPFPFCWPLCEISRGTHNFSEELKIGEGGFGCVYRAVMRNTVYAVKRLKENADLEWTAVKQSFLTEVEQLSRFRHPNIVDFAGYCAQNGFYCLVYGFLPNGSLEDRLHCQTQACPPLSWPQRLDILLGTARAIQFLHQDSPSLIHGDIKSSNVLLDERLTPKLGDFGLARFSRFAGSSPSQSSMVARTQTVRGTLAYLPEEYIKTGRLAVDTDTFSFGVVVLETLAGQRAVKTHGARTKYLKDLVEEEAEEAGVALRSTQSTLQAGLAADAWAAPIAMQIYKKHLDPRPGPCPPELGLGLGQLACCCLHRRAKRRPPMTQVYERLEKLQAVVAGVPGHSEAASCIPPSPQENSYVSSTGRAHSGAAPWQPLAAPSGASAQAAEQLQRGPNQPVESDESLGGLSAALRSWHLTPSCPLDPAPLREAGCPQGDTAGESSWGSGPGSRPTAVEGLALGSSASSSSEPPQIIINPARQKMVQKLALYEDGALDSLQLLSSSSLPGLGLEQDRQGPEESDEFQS
UniProt P53667: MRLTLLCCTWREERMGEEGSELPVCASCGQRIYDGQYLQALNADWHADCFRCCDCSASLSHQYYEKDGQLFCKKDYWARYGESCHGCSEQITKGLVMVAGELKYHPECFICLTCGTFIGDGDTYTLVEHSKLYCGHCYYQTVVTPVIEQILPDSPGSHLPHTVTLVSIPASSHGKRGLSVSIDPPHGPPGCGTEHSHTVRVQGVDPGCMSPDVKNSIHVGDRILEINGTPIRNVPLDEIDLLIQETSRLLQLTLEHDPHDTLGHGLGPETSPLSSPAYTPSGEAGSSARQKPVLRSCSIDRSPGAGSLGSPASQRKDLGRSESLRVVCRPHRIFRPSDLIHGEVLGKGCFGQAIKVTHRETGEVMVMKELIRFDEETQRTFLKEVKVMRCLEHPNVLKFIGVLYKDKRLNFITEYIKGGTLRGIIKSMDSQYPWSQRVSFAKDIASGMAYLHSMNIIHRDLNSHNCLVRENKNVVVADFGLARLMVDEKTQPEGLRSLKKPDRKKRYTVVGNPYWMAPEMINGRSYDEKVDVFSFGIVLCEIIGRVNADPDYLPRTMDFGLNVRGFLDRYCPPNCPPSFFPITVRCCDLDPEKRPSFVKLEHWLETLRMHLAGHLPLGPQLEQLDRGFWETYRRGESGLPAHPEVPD

What follows are targets tested with Cc1nc(Nc2ncc(C(=O)Nc3c(C)cccc3Cl)s2)cc(N2CCN(CCO)CC2)n1 [dasatinib] (assay: log2 fold change of tryptic peptide abundance, ligand vs vehicle (limited proteolysis) (log2 ratio); higher = more trypsin-susceptible (destabilized)). Settings: ligand concentration: 5 uM; sample: K562 cleared lysate.

Target | log2 fold change
YARS (peptide sequence: APWELLELR, peptide start residue: 85) (UniProt P54577) | -0.182
PSMD8 (peptide sequence: SPNLSKCGEELGR, peptide start residue: 106) (UniProt P48556) | 0.607
PTTG1IP (peptide sequence: KYGLFKEENPYAR, peptide start residue: 164) (UniProt P53801) | -0.261
PRIM2 (peptide sequence: KEPIQPETPQPK, peptide start residue: 463) (UniProt P49643) | -0.426
NUMB (peptide sequence: VSFCAPDRNFDR, peptide start residue: 114) (UniProt P49757) | -0.17
MARCKSL1 (peptide sequence: GEVPPKETPK, peptide start residue: 78) (UniProt P49006) | 0.143
PLK1 (peptide sequence: SAIILHLSNGSVQINFFQDHTK, peptide start residue: 519) (UniProt P53350) | 0.886
UniProt P48730 (peptide sequence: VASSGLQSVVHR, peptide start residue: 404) | 0.565
IRAK1 (peptide sequence: AIQFLHQDSPSLIHGDIK, peptide start residue: 325) (UniProt P51617) | -0.27
LIMK1 (peptide sequence: TMDFGLNVR, peptide start residue: 556) (UniProt P53667) | -0.475
